This is an account of results in publication PMC5074588.

Sequences of proteins named here, by UniProt entry; tags and fusion partners are left off. A change or cut given only in a name is not applied to a line headed by its entry.
UniProt Q0WSY2: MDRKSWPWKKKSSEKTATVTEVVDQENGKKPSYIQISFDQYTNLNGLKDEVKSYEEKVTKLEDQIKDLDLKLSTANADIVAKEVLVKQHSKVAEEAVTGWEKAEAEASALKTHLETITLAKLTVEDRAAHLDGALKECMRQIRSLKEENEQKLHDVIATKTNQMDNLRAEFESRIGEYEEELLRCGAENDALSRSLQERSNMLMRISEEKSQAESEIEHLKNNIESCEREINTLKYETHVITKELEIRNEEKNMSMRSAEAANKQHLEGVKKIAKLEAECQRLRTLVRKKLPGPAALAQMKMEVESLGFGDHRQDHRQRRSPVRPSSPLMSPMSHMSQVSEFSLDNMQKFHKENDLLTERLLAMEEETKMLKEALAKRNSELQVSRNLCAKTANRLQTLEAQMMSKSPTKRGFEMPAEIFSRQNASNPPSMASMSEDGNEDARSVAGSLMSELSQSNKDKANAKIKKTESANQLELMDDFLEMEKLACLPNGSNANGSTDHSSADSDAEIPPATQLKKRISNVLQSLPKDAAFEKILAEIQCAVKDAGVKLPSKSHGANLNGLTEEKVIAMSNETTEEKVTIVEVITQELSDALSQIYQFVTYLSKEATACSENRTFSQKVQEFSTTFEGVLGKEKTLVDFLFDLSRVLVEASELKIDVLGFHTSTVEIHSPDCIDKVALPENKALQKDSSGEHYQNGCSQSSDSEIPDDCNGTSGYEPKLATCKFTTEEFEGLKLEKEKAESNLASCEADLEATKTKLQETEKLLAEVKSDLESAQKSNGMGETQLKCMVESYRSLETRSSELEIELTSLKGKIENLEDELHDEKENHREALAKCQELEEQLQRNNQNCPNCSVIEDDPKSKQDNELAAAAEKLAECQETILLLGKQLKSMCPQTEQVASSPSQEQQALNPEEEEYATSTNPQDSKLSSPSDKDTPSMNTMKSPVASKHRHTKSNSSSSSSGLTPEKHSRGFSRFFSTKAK

In assay [1] the target is MBP-TCS1 (TRICHOME CELL SHAPE 1 fused to maltose binding protein) (Arabidopsis thaliana) (UniProt Q0WSY2). As to the kind of experiment: pull-down; bacterial lysates with ~15 ug MBP-TCS1 or MBP mixed with ~20 ug AN-His fusion proteins; amylose resin, 4 C, 1 h; washed five times with TGH buffer; anti-His immunoblot; only the binder purified. Background: Immunoblotting shows a protein as a band on a membrane.

Assay [2] addresses TCS1-BD (TCS1 fused to the GAL4 DNA binding domain) (Arabidopsis thaliana) (UniProt Q0WSY2). As to the kind of experiment: two-hybrid; prey (pEXP-AD502) and bait (pDBleu) plasmids co-transformed into yeast strain PT69-4A; TCS1 against full length KCBP.
Assay [3] deals with TCS1-GFP (pTCS1:TCS1-GFP) (Arabidopsis thaliana) (UniProt Q0WSY2). In words: co-IP; total proteins from pTCS1:TCS1-GFP;35S:Myc-KCBP and 35S:GFP;35S:Myc-KCBP plants (50 mM Tris/HCl pH 7.5, 2% Triton X-100, 150 mM NaCl, MG132) on GFP-Trap-A, 1 h, 4 C; immunoblot with anti-GFP and anti-Myc.

No constants are given. Whether binding was seen depends on the method and setting. For part of these data: Binding can be weak; no strength is given. Sequences can lack the tags named with a protein. For part of these data: In cells and extracts the contact can be indirect.

B1: AN-His (ANGUSTIFOLIA) (protein, UniProt O23702 1-636)
chain: MSKIRSSATMPHRDQPSPASPHVVTLNCIEDCALEQDSLAGVAGVEYVPLSRIADGKIESATAVLLHSLAYLPRAAQRRLRPHQLILCLGSADRAVDSTLAADLGLRLVHVDTSRAEEIADTVMALILGLLRRTHLLSRHALSASGWLGSLQPLCRGMRRCRGMVLGIVGRSVSARYLASRSLAFKMSVLYFDVPEGDEERIRPSRFPRAARRMDTLNDLLAASDVISLHCALTNDTVQILNAECLQHIKPGAFLVNTGSCQLLDDCAVKQLLIDGTIAGCALDGAEGPQWMEAWVKEMPNVLILPRSADYSEEVWMEIREKAISILHSFFLDGVIPSNTVSDEEVEESEASEEEEQSPSKHEKLAIVESTSRQQGESTLTSTEIVRREASELKESLSPGQQHVSQNTAVKPEGRRSRSGKKAKKRHSQQKYMQKTDGSSGLNEESTSRRDDIAMSDTEEVLSSSSRCASPEDSRSRKTPLEVMQESSPNQLVMSSKKFIGKSSELLKDGYVVALYAKDLSGLHVSRQRTKNGGWFLDTLSNVSKRDPAAQFIIAYRNKDTVGLRSFAAGGKLLQINRRMEFVFASHSFDVWESWSLEGSLDECRLVNCRNSSAVLDVRVEILAMVGDDGITRWID
B1: the binding entry in assay [1] was “no binding”.

B2: KCBP-AD (full length KCBP/ZWICHEL, two-hybrid fusion) (protein, UniProt Q9FHN8 1-1260)
chain: MEGQRGSNSSLSSGNGTEVATDVSSCFYVPNPSGTDFDAESSSLPPLSPAPQVALSIPAELAAAIPLIDRFQVEAFLRLMQKQIQSAGKRGFFYSKKSSGSNVRERFTFEDMLCFQKDPIPTSLLKINSDLVSRATKLFHLILKYMGVDSSDRSTPPSLDERIDLVGKLFKKTLKRVELRDELFAQISKQTRHNPDRQYLIKAWELMYLCASSMPPSKDIGGYLSEYIHNVAHDATIEPDAQVLAVNTLKALKRSIKAGPRHTTPGREEIEALLTGRKLTTIVFFLDETFEEISYDMATTVSDAVEELAGTIKLSAFSSFSLFECRKVVSSSKSSDPGNEEYIGLDDNKYIGDLLAEFKAIKDRNKGEILHCKLVFKKKLFRESDEAVTDLMFVQLSYVQLQHDYLLGNYPVGRDDAAQLCALQILVGIGFVNSPESCIDWTSLLERFLPRQIAITRAKREWELDILARYRSMENVTKDDARQQFLRILKALPYGNSVFFSVRKIDDPIGLLPGRIILGINKRGVHFFRPVPKEYLHSAELRDIMQFGSSNTAVFFKMRVAGVLHIFQFETKQGEEICVALQTHINDVMLRRYSKARSAANSLVNGDISCSSKPQNFEVYEKRLQDLSKAYEESQKKIEKLMDEQQEKNQQEVTLREELEAIHNGLELERRKLLEVTLDRDKLRSLCDEKGTTIQSLMSELRGMEARLAKSGNTKSSKETKSELAEMNNQILYKIQKELEVRNKELHVAVDNSKRLLSENKILEQNLNIEKKKKEEVEIHQKRYEQEKKVLKLRVSELENKLEVLAQDLDSAESTIESKNSDMLLLQNNLKELEELREMKEDIDRKNEQTAAILKMQGAQLAELEILYKEEQVLRKRYYNTIEDMKGKIRVYCRIRPLNEKESSEREKQMLTTVDEFTVEHPWKDDKRKQHIYDRVFDMRASQDDIFEDTKYLVQSAVDGYNVCIFAYGQTGSGKTFTIYGHESNPGLTPRATKELFNILKRDSKRFSFSLKAYMVELYQDTLVDLLLPKSARRLKLEIKKDSKGMVFVENVTTIPISTLEELRMILERGSERRHVSGTNMNEESSRSHLILSVVIESIDLQTQSAARGKLSFVDLAGSERVKKSGSAGCQLKEAQSINKSLSALGDVIGALSSGNQHIPYRNHKLTMLMSDSLGGNAKTLMFVNVSPAESNLDETYNSLLYASRVRTIVNDPSKHISSKEMVRLKKLVAYWKEQAGKKGEEEDLVDIEEDRTRKDEADS
As for B2, the binding result in assay [2] was “binds”.

B3: Myc-KCBP (35S:Myc-KCBP) (protein, UniProt Q9FHN8 1-1260)
chain: MEGQRGSNSSLSSGNGTEVATDVSSCFYVPNPSGTDFDAESSSLPPLSPAPQVALSIPAELAAAIPLIDRFQVEAFLRLMQKQIQSAGKRGFFYSKKSSGSNVRERFTFEDMLCFQKDPIPTSLLKINSDLVSRATKLFHLILKYMGVDSSDRSTPPSLDERIDLVGKLFKKTLKRVELRDELFAQISKQTRHNPDRQYLIKAWELMYLCASSMPPSKDIGGYLSEYIHNVAHDATIEPDAQVLAVNTLKALKRSIKAGPRHTTPGREEIEALLTGRKLTTIVFFLDETFEEISYDMATTVSDAVEELAGTIKLSAFSSFSLFECRKVVSSSKSSDPGNEEYIGLDDNKYIGDLLAEFKAIKDRNKGEILHCKLVFKKKLFRESDEAVTDLMFVQLSYVQLQHDYLLGNYPVGRDDAAQLCALQILVGIGFVNSPESCIDWTSLLERFLPRQIAITRAKREWELDILARYRSMENVTKDDARQQFLRILKALPYGNSVFFSVRKIDDPIGLLPGRIILGINKRGVHFFRPVPKEYLHSAELRDIMQFGSSNTAVFFKMRVAGVLHIFQFETKQGEEICVALQTHINDVMLRRYSKARSAANSLVNGDISCSSKPQNFEVYEKRLQDLSKAYEESQKKIEKLMDEQQEKNQQEVTLREELEAIHNGLELERRKLLEVTLDRDKLRSLCDEKGTTIQSLMSELRGMEARLAKSGNTKSSKETKSELAEMNNQILYKIQKELEVRNKELHVAVDNSKRLLSENKILEQNLNIEKKKKEEVEIHQKRYEQEKKVLKLRVSELENKLEVLAQDLDSAESTIESKNSDMLLLQNNLKELEELREMKEDIDRKNEQTAAILKMQGAQLAELEILYKEEQVLRKRYYNTIEDMKGKIRVYCRIRPLNEKESSEREKQMLTTVDEFTVEHPWKDDKRKQHIYDRVFDMRASQDDIFEDTKYLVQSAVDGYNVCIFAYGQTGSGKTFTIYGHESNPGLTPRATKELFNILKRDSKRFSFSLKAYMVELYQDTLVDLLLPKSARRLKLEIKKDSKGMVFVENVTTIPISTLEELRMILERGSERRHVSGTNMNEESSRSHLILSVVIESIDLQTQSAARGKLSFVDLAGSERVKKSGSAGCQLKEAQSINKSLSALGDVIGALSSGNQHIPYRNHKLTMLMSDSLGGNAKTLMFVNVSPAESNLDETYNSLLYASRVRTIVNDPSKHISSKEMVRLKKLVAYWKEQAGKKGEEEDLVDIEEDRTRKDEADS
For the molecule B3, the binding entry in assay [3] is on record as “binds”.
